# For at least one compound, name, drawing or mass did not settle the structure.
# Test system: S. aureus ATCC 25923 cells
# Assay: DNA, protein and rRNA quantitation in treated cells
# Format: cell-based, Staphylococcus aureus
# Conditions: one-quarter MIC, exponential growth, versus control cells
# Experimental: The level of macromolecules in S. aureus ATCC 25923 cells during exponential growth due to MC4 treatment were analyzed.
# DNA, protein and rRNA quantitation. MC4, oxacillin and rifampicin at ¼ MIC level were added to S. aureus strain ATCC 25923 in LB medium at early log phase (OD595=0.2), which was then grown to mid-log phase (OD595==0.5). For DNA and protein quantitation, 1 ml cells were harvested and treated with 10 mg/ml lysozyme+0.5 mg/ml lysostaphin at RT for 1 hr before centrifugation at 13000 g/min for 3 min. The supernatant was discarded and cells lysed with 600 μl Nuclei Lysis Solution (Promega/Genomic DNA Purification Kit) for 5 min, followed by gentle sonication. The amount of DNA was quantified with Qubit dsDNA BR (broad range) and protein quantified with NanoOrange™ Protein Quantitation Kit (ThermoFisher). For rRNA quantitation, 1 ml culture was collected and treated with RNAProtect (Qiagen), before total RNA was extracted with an RNeasv Mini Kit (Qiagen). DNase I treatment was performed with a TURBO DNA-free Kit (ThermoFisher). The extracted RNA was subjected to Agilent 2100 analysis, and the level of major rRNA (the sum of 16S+23S rRNA) as percentage of total RNA. The values were compared across each treatment group. All experiments were repeated three times.
smiles,measurement,value
CO[C@H]1/C=C/O[C@@]2(C)Oc3c(C)c(O)c4c(O)c(c(/C=N/N5CCN(C)CC5)c(O)c4c3C2=O)NC(=O)/C(C)=C\C=C\[C@H](C)[C@H](O)[C@@H](C)[C@@H](O)[C@@H](C)[C@H](OC(C)=O)[C@@H]1C [rifampicin],DNA level,none of the treatment affected the DNA level
same,protein level,did not show this effect
same,rRNA level (16S+23S),reduction in the rRNA level

# — patent publication US11479529B2, “Compounds with antimicrobial activity” (The Hong Kong Polytechnic University, priority 2018, dated 2022)
